In article PMC11417359:
The exact form of at least one protein or probe is not confirmed. Where cells or extracts were used, other partners may take part. For some assays here: No signal at the amounts used counts as a negative. Where a protein sequence is shown, tags need not be part of it.

How the values were obtained:
[1] = biological target: T1, HSF5 (Mus musculus) (UniProt Q5ND04); assay: EMSA; details: nuclear extract, signal undetectable with excess (100-fold) unlabeled target probe; Beyotime EMSA/Gel-Shift Kit GS009; competitor or antibody preincubated 20 min (antibody at room temperature); 5% polyacrylamide gel in TBE; protein in an extract; label: 5'-Cy5 (labeled probe), unlabeled as competitor
T1 sequence (looked up, limits assumed): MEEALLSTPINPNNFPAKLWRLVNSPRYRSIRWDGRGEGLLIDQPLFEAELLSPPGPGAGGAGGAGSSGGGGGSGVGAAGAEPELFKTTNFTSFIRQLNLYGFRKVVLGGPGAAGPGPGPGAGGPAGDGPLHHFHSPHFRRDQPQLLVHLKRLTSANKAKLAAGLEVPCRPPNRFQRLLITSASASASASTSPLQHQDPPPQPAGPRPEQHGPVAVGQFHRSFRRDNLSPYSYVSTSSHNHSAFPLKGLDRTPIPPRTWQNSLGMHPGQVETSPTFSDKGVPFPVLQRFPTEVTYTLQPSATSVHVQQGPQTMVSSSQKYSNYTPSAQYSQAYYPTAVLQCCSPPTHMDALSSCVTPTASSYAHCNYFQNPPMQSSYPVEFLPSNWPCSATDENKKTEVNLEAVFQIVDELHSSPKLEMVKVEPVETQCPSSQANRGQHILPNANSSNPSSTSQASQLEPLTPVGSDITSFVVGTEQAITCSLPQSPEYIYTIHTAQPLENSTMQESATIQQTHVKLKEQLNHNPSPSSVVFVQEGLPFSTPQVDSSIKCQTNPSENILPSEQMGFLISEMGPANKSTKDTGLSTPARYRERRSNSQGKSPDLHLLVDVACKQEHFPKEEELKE

[2] = biological target: T1, HSF5 (Mus musculus); assay: competition with a labelled probe; details: 100-fold excess mutant probe did not abolish binding to N1; Beyotime EMSA/Gel-Shift Kit GS009; competitor or antibody preincubated 20 min (antibody at room temperature); 5% polyacrylamide gel in TBE; protein in an extract; label: 5'-Cy5

CCGGTGTAGAACGCTCAGA (double strand) [Slc25a42 promoter probe (heptamer TAGAACG)]
binding result [1]: binds

CCGGTGTTACAGTCTCAGA (double strand) [mutant probe]
binding result [2]: no binding
